Consider 14 compounds from PubChem BioAssay.

This is one part of the list. The main result of the screen is listed elsewhere. These columns were measured beside it and carry no call. Compounds called inactive in the main read-out are mostly missing here.

This experiment in a line: inhibitors of TNFa-induced NFkB p65 translocation, primary screen, imaging, HUVEC, MLSMR starter and 10KST1 sets (AID 438).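 Note: compound added about 3h40 before a 20 min TNFalpha stimulation.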 The following applies: HUVEC TNFa-induced p65 nuclear translocation, measured here: nuclei count (cytotoxicity indicator), at 2.08 µM.
For `CCOC(=O)c1cc2c(=O)n3cccc(C)c3nc2n(CCc2ccccc2)c1=N`, the cell count stood at 462.

Turning to `Cc1cccc(N2CN=c3s/c(=C\c4ccncc4)c(=O)n3C2)c1`, the cell count was found to be 421.

`COc1cc(C2C(C#N)=C(N)Oc3cc(N)ccc32)cc(OC)c1OC` (centres undefined) had a cell count of 379.

As to `COc1cccc(N2CCN(c3ncnc4c3[nH]c3ccccc34)CC2C)c1` (centres undefined), the cell count turned out to be 472.

Consider `CCC(NC(=O)Nc1nnc(C(F)(F)F)s1)(C(F)(F)F)C(F)(F)F`, for which the cell count was 690.

In turn, `Clc1ccc(-c2nnc3sc(-c4ccc(Br)o4)nn23)cc1` registered a cell count of 409.

As for `CC(C)CCNC(=O)NC(=O)CSc1nnc(COc2ccccc2Cl)o1`, the cell count is 606.

Compound `COc1ccc(CNC(=O)COC(=O)c2n[nH]c3ccccc23)cc1OC` had a cell count of 604.

In the case of `COC(=O)c1ccc(N2C(=O)CC(N3CCN(C(=O)c4ccco4)CC3)C2=O)cc1` (centres undefined), the cell count was determined as 495.

In the case of `O=C1[C@@H]2C(c3ccccc3Cl)=NO[C@@H]2C(=O)N1Cc1ccccc1`, the cell count is 385.

`COc1ccc(OCC(=O)OCCN(C)C)cc1` showed a cell count of 413.

Consider `O=C(O)c1ccc(COCC(F)(F)C(F)F)o1`, for which the cell count was 344.

On to `Cc1cc(C(C)(C)C)c(O)c(C)c1CC1=NCCN1`, for which the cell count came out at 381.

Take `O=C(CN(Cc1ccco1)C(=O)CNS(=O)(=O)c1ccc(Cl)cc1)NCc1ccc(F)cc1`: the cell count turned out to be 543.
